# PubChem BioAssay AID504804 | Drosophila RNAi Screening Center, 2011
# Test: 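Knock-downs shielding fly cells from apoptosis caused by DNA damage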 (primary screen)
# Cell system: Drosophila Kc cells
# Knock-down reagent: long dsRNA against Drosophila genes, 0.5 µg dsRNA per well
# Duration: 96 h (48 h knock-down, then 48 h drug)
# Challenge: doxorubicin 5 µg/ml for 48 h, added 48 h after dsRNA
# Read-out: 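Luminescent ATP counts per replicate, not normalised, reflecting viable cells after 48 h dsRNA knock-down followed by 48 h of 5 µg/ml doxorubicin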
# Scale: raw ATP luminescence: higher = more viable cells, protection from doxorubicin
# Call rule: 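z-score of 2 or more over plate mean in both duplicates, retained only when retests and separate dsRNAs confirm the protection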
# The screen tested about 19,000 reagents; this is a random part of those that have a named target and a result. In the full data, 47 (0.25%) are marked active. 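Signals are raw, not normalised; exact z-scores behind calls not deposited; actives needed confirmation, so some wells reaching 2 SD are inactive.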 A plus sign joins genes that one reagent is predicted to hit.
gene,dsRNA,SD above plate mean,"raw ATP luminescence, replicate 1","raw ATP luminescence, replicate 2",Call
pico,DRSC19430,,3.67e5,3.22e5,inactive
Osi5,DRSC12276,,57560,56810,inactive
Evi5,DRSC19421,,3.04e5,2.95e5,inactive
GatA,DRSC16956,,37967,52413,inactive
CG6834,DRSC16125,,56490,53450,inactive
CG13965,DRSC02307,,45873,50540,inactive
CycB,DRSC04605,,66450,53027,inactive
Psf1,DRSC08638,,73840,38497,inactive
CG2111,DRSC18205,,3.25e5,3.32e5,inactive
CG14400,DRSC02384,,70750,63017,inactive
Gr10a,DRSC18897,,2.82e5,3.06e5,inactive
Rpn6,DRSC07541,,55777,45133,inactive
slmb,DRSC17056,,42527,42823,inactive
CG32037,DRSC10363,,98927,93607,inactive
CG3552,DRSC10370,,96920,94547,inactive
g,DRSC20335,,3.45e5,2.70e5,inactive
CG33483,DRSC14019,,2.34e5,2.37e5,inactive
Zip102B,DRSC17155,,75070,53000,inactive
CG14132,DRSC10136,,83250,57890,inactive
Tsp42Eb + CG30160,DRSC04961,,1.10e5,1.16e5,inactive
Tsp42Eb + CG30160,DRSC06791,,41153,72860,inactive
CG5177,DRSC02824,,1.21e5,65410,inactive
CG10154,DRSC09707,,78840,68637,inactive
CR31700,DRSC03682,,90250,1.04e5,inactive
ACXB,DRSC00845,,68483,74360,inactive
CycB3,DRSC16618,,57310,63540,inactive
CG10226,DRSC09715,,34717,42793,inactive
CG33181,DRSC17971,,40530,40360,inactive
CG32050 (retired record),DRSC10173,,73593,64990,inactive
Smox,DRSC18716,,43370,47370,inactive
CG14074,DRSC10079,,46760,36677,inactive
spel1,DRSC03617,,70247,74010,inactive
CG34168,DRSC01938,,66397,69980,inactive
mRpS14,DRSC19444,,3.09e5,3.08e5,inactive
GstE8,DRSC06678,,47613,57263,inactive
Nup37,DRSC14419,,64260,57150,inactive
Sgs5bis,DRSC16263,,1.00e5,1.04e5,inactive
Cpr12A,DRSC19722,,3.55e5,3.67e5,inactive
Jheh3,DRSC06533,,89723,59727,inactive
sll,DRSC16271,,50250,49243,inactive
pbl,DRSC11381,,36020,35743,inactive
CG7379,DRSC16237,,45533,34173,inactive
lcs,DRSC20580,,2.80e5,2.70e5,inactive
CG4364,DRSC02742,,94980,78103,inactive
Pal1 + Pdrg1,DRSC06587,,43403,94723,inactive
Bet3,DRSC10388,,84547,87093,inactive
Scp1,DRSC20799,,2.16e5,2.89e5,inactive
Scp1,DRSC20803,,2.48e5,2.56e5,inactive
Scp1,DRSC20806,,2.84e5,3.61e5,inactive
Arfip,DRSC15179,,57900,28660,inactive
CG12684,DRSC17875,,34960,53210,inactive
SmD1,DRSC09800,,79720,57807,inactive
Balat,DRSC06852,,73843,54377,inactive
E(spl)m7-HLH,DRSC16696,,62330,54910,inactive
CG8369,DRSC16413,,47057,49043,inactive
CG42245 + MEP-1,DRSC07993,,1.39e5,1.61e5,inactive
CG42245 + MEP-1,DRSC08274,,71833,77670,inactive
Bem46,DRSC00275,,24447,29127,inactive
Hs6st,DRSC14348,,28580,24360,inactive
Hs6st,DRSC15182,,59730,64880,inactive
Hs6st,DRSC15581,,63780,59640,inactive
CG12814,DRSC14552,,54100,18733,inactive
CG12814,DRSC14553,,54410,37247,inactive
Srg3,DRSC08984,,1.52e5,1.01e5,inactive
Srg3,DRSC10178,,80850,57810,inactive
MRP,DRSC02942,,1.00e5,80867,inactive
Ube3a,DRSC10600,,36370,43900,inactive
CG3860,DRSC04425,,93790,79097,inactive
Rpt3,DRSC20283,,2.40e5,2.25e5,inactive
Nepl19,DRSC14875,,1.89e5,2.35e5,inactive
CG15219,DRSC03715,,56090,32233,inactive
Bet5,DRSC14600,,32860,36460,inactive
sip2,DRSC03154,,26923,30953,inactive
TwdlE,DRSC02392,,45953,72677,inactive
Trm1,DRSC02951,,98803,64333,inactive
CG15506,DRSC15047,,56740,47680,inactive
CG34290,DRSC13660,,2.86e5,2.86e5,inactive
Ir67b,DRSC09876,,56807,54550,inactive
Obp58d,DRSC04162,,43643,49057,inactive
Mst57Da + alpha4GT2,DRSC13732,,2.62e5,2.31e5,inactive
Incenp,DRSC06116,,78080,66960,inactive
CG30151,DRSC05888,,1.64e5,98897,inactive
can,DRSC10664,,2.12e5,1.93e5,inactive
CG31635,DRSC02273,,22893,24290,inactive
CG31635,DRSC02274,,28173,20473,inactive
Unc-115a,DRSC12749,,68137,49900,inactive
CG13561,DRSC04199,,36773,42503,inactive
CG32017,DRSC17183,,1.72e5,1.68e5,inactive
CG7227,DRSC03032,,1.25e5,75817,inactive
CG18809,DRSC19818,,2.40e5,2.55e5,inactive
CG6168,DRSC10596,,70517,71187,inactive
Acbp2,DRSC11141,,61557,65147,inactive
Cdk5alpha,DRSC03290,,44353,72973,inactive
CG32066,DRSC10652,,34453,42323,inactive
CG32066,DRSC10653,,71503,70890,inactive
Sfxn2,DRSC10718,,64650,60720,inactive
NijB,DRSC09850,,1.67e5,2.06e5,inactive
Nipped-A,DRSC04882,,73877,64323,inactive
Nipped-A,DRSC04883,,31537,51317,inactive
Nipped-A,DRSC04884,,63127,53057,inactive
glec,DRSC16958,,80770,90970,inactive
CG30377,DRSC06477,,69610,69717,inactive
CG30377,DRSC06799,,25753,59503,inactive
c(3)G,DRSC15245,2 to 3 SD above plate mean,77057,65740,inactive
CG44774,DRSC18342,,56040,57170,inactive
CG18477 + CG31780,DRSC01955,,75637,80833,inactive
CG8665,DRSC03098,,52533,64600,inactive
